Among all 310,000 compounds or so, about 17,000 (5.5%) were called active. Inconclusive means that the source gave no clear call. Such entries were picked first, then a sample of the others. The call rests on the fitted dose curve; in most records, active means well fitted inhibition curve with a large enough effect; inconclusive means small, poorly fitted or top-dose-only effect, or effect the other way; inactive means no such curve, though single readings can be large or run the other way. Where the call is inconclusive, the potency comes from a doubtful curve fit.
target: Nuclear receptor ROR-gamma (Mus musculus) (UniProt P51450); assay: qHTS for inhibitors of ROR gamma transcriptional activity; settings: Drosophila S2 Gal4-RORgamma UAS-luciferase reporter, 20 h; activity change, negative = inhibition: at 53.6 µM (top of the series); further: nearly all actives have a fitted effect of over 60% in size
In short: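 In this cell-based reporter format, copper sulfate (700 uM final) drives Gal4–ROR gamma fusion expression from a metallothionein promoter in Drosophila Schneider cells; compounds preincubated 1 hr, reporter read after 20 hr at ambient temperature.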
On the % scale 0 is the no-effect control and ±100 the full control effect; potency means the concentration at half of the fitted maximal effect.

Amino acid sequences for entries named in this document (tags omitted). A change or cut given only in a name is not applied to a line headed by its entry.
UniProt P51450: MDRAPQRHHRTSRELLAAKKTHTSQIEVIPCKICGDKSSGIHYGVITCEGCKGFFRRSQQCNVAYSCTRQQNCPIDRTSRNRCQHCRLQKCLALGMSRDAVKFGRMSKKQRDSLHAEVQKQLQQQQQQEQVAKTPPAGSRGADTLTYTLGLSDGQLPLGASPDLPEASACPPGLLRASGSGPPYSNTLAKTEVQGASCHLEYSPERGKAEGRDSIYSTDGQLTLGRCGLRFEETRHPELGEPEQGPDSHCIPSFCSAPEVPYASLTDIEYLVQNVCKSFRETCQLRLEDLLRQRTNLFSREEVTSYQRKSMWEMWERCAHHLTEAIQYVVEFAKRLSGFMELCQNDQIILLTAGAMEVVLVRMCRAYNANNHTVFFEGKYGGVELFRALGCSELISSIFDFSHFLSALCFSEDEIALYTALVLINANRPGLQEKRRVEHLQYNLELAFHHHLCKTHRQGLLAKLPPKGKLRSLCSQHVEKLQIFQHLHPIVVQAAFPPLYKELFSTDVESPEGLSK

SMILES | Potency | activity change, negative = inhibition
c1ccc(CCn2c(SCc3ccccc3)nnc2-c2ccncc2)cc1 | inconclusive: 35.5 µM [inhibitor, single point] | –
O=C1S/C(=C\c2ccc(N3CCOCC3)o2)C(=O)N1Cc1ccc(F)cc1 | inconclusive: 22.4 µM [inhibitor, single point] | –
Cn1c(=O)c2c(ncn2CC(O)CNc2cccc(Cl)c2)n(C)c1=O (stereo unspecified) | inconclusive: 10 µM [activator, partial curve] | –
COc1ccc2ccccc2c1CNCc1ccccn1 | inconclusive: 14.1 µM [inhibitor, single point] | –
CCN1CCN(C(=S)Nc2cccc([N+](=O)[O-])c2)CC1 | inconclusive: 7.08 µM [activator, partial curve] | –
COc1cc2c3c(c1)-c1c(sn(-c4cc(OC)ccc4OC)c1=S)C(C)(C)N3C(=O)C2=O | inconclusive: 22.4 µM [inhibitor, single point] | –
O=C(N/N=C/c1sc(N2CCOCC2)nc1-c1ccccc1)c1cccc(S(=O)(=O)N2CCCC2)c1 | inconclusive: 5.62 µM [inhibitor, partial curve] | –
Cc1c(Cl)cccc1NC(=S)N(Cc1cccnc1)Cc1ccccc1Cl | active: 11.2 µM | –
NS(=O)(=O)c1ccc(NC(=O)COC(=O)CSc2n[nH]c(-c3ccccc3)n2)cc1 | inconclusive: 6.31 µM [inhibitor, single point] | –
Cc1ccc(S(=O)(=O)N(C)C)cc1NC(=O)C(C)OC(=O)/C=C/c1cccs1 (stereo unspecified) | inconclusive: 6.31 µM [activator, partial curve, poor fit] | –
CSc1sc(C(=O)N2CCCCC2)c(-c2cccs2)c1C#N | – | inactive: 21.8%
O=C(NC1CCCCC1)N1CCN(c2ccc(Cl)cc2)CC1 | – | inactive: 11.4%
CCn1c(CC(C)C)n[nH]c1=S | inconclusive: 20 µM [inhibitor, single point] | –
Cc1snc(SCC(=O)N/N=C(\N)COc2ccc(F)cc2)c1C#N | active: 2.51 µM | –
O=C(O)c1ccc(N2C(=O)CC(N3CCN(c4ccc(Cl)cc4)CC3)C2=O)cc1 (stereo unspecified) | inconclusive: 14.1 µM [activator, single point] | –
COc1ccc(/C=N/NC(=O)Cc2ccc(Cl)cc2)cc1OC | – | inactive: 16.7%
Cc1c(Cl)c([N+](=O)[O-])nn1CCCC(=O)Nc1cccc(O)c1 | inconclusive: 35.5 µM [activator, single point] | –
COc1ccc(/C=[N+](\[O-])C2N(c3ccccc3)C(=S)SC2(C)C)cc1OC (stereo unspecified) | – | inactive: -4.63%
O=C(N/N=C/C=C/c1ccco1)c1ccncc1 | active: 10 µM | –
CC(=O)N1CCC2(CCCN(c3ccc(-c4ccccc4)cc3)C2)CC1 | inconclusive: 35.5 µM [activator, single point] | –
CCCCCOc1ccc(C(=O)CCC(=O)Nc2ccc(NC(C)=O)cc2)cc1 | – | inactive: -0.549%
CN1CCN(c2ccc(Cl)cc2NC(=O)c2ccc(S(=O)(=O)N(C)C)cc2)CC1 | inconclusive: 0.398 µM [activator, partial curve, poor fit] | –
COc1cccc(NC(=O)CCc2c(C)nc3nc(CNC(=O)c4cccc(F)c4)nn3c2C)c1 | – | inactive: 10.7%

SMILES | Potency | activity change, negative = inhibition
COc1cc(/C=C2\SC(=S)N(NC(=O)c3ccncc3)C2=O)ccc1O | – | inactive: -13.7%
CCCn1c(CNc2ccc(Br)cc2)nc2ccccc21 | inconclusive: 35.5 µM [inhibitor, single point] | –
COc1ccc(-c2cc(-c3ccc(C)cc3)n[nH]2)c(O)c1 | active: 2.51 µM | –
Cc1nc2ccccc2n1CC(=O)NC(C)C1CC2CCC1C2 (stereo unspecified) | inconclusive: 17.8 µM [inhibitor, single point] | –
Cc1cc(=O)n2cc(-c3ccccc3)nc2[nH]1 | inconclusive: 17.8 µM [inhibitor, single point] | –
CCCCc1ccc(NC(=O)CC(C)(C)C)cc1 | inconclusive: 1.26 µM [activator, partial curve] | –
CCOC(=O)C(NCCCCl)c1ccccc1 (stereo unspecified) | inconclusive: 22.4 µM [activator, single point] | –
C=Cc1ccc(Cn2c(=O)n(CCCOC)c(=O)c3sccc32)cc1 | – | inactive: 6.98%
COc1ccc(NC(=O)CN2C(=O)CC(C)S(=O)(=O)c3ccccc32)cc1 (stereo unspecified) | – | inactive: -3.48%
COc1ccc(/C=C/C(=O)NC(=S)NNC(=O)c2c(-c3ccccc3)noc2C)cc1 | active: 3.16 µM | –
CCOC(=O)COc1ccc(C2NC(C(=O)O)CS2)cc1 (stereo unspecified) | – | inactive: 12.3%
O=C(NC(=S)Nc1cccnc1)c1cccc(Br)c1 | inconclusive: 25.1 µM [inhibitor, single point] | –
CCSC1=NC(=O)/C(=C2/C=Cc3ccccc3N2CC)S1 | – | inactive: 5%
COc1cccc(OCc2nc3ccccc3[nH]2)c1 | inconclusive: 1.26 µM [activator, partial curve, poor fit] | –
COc1ccccc1N1CC(C)(C)C(=O)N(C(=O)c2c(F)cccc2Cl)C1=S | – | inactive: 34.6%
Cc1ccc(-c2cc(-c3ccco3)c(C#N)c(=O)[nH]2)cc1 | inconclusive: 22.4 µM [activator, single point] | –
O=C(OCC(=O)N1CCN(C(=O)c2ccco2)CC1)c1ccccc1OCc1ccc(Cl)cc1 | inconclusive: 11.2 µM [activator, single point] | –
CCOc1ccc(NS(=O)(=O)c2cc(NC(=O)c3cccc(C)c3)ccc2Cl)cc1 | inconclusive: 7.94 µM [activator, partial curve] | –
Cn1cccc1C(=O)N1CCC[C@@]2(CCN(c3ccccc3)C2)C1 | – | inactive: 1.58%
COC(=O)/C=C1\C(=O)N(c2nc3ccc(OC)cc3s2)C(=S)N1c1ccc(F)cc1 | inconclusive: 3.16 µM [inhibitor, full curve, poor fit] | –
O=C(Nc1ccccc1)c1ccc(Br)c(S(=O)(=O)Nc2cccnc2)c1 | inconclusive: 11.2 µM [activator, single point] | –
COc1ccc(OC)c(NC(=O)C(=O)/C=C(\O)c2cc(OC)ccc2OC)c1 | inconclusive: 35.5 µM [inhibitor, single point] | –
Cc1cc(Br)ccc1NC(=S)NCCc1ccccc1 | active: 2.51 µM | –

Single entries from the entries so far:
Cn1cccc1C(=O)N1CCC[C@@]2(CCN(c3ccccc3)C2)C1 | activity change, negative = inhibition: inactive: 1.58%
COc1ccc(NC(=O)CN2C(=O)CC(C)S(=O)(=O)c3ccccc32)cc1 (stereo unspecified) | activity change, negative = inhibition: inactive: -3.48%

From PubChem BioAssay AID2551 (National Center for Advancing Translational Sciences (NCATS), 2010)
